Reference: PMC3046128, “Systematic Two-Hybrid and Comparative Proteomic Analyses Reveal Novel Yeast Pre-mRNA Splicing Factors Connected to Prp19” (PLoS ONE, 2011)
These are yes or no findings as the source states them, for the method shown. For some assays here: In cells and extracts the contact can be indirect. Some binding calls cover weakened binding; strength is not graded here. Where a sequence is shown, tags or fusion partners need not be part of it. One block for each binder: values may come before it.

Experiments:
[1] = target: MBP-ScPrp17 (S. cerevisiae) (UniProt P40968); test: AUC; sedimentation velocity, 30,000 rpm, 22°C, 280 nm; Sedfit c(s) analysis; ScPrp19 constant with His6-ScUrn1 at 1∶1 or 1∶2.5 molar ratio; both purified
[2] = target: T1, Urn1-GFP (S. cerevisiae) (S. cerevisiae) (UniProt Q06525); test: co-IP; S. cerevisiae lysates of Aim4-Myc13 Urn1-GFP double tag and single tag strains; anti-Myc or anti-GFP immunoprecipitates, immunoblot
T1 sequence: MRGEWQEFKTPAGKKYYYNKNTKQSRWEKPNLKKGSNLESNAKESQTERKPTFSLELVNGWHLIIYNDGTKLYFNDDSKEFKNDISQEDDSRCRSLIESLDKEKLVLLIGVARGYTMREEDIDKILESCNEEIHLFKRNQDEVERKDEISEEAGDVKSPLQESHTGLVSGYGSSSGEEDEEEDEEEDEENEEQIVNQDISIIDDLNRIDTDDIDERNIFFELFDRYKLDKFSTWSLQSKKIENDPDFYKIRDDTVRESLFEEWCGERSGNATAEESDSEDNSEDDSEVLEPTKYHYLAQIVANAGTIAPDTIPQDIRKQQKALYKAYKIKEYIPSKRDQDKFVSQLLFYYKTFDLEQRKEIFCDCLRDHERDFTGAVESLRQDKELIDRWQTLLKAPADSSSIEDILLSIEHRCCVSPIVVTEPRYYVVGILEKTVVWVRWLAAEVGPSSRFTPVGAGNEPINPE

[3] = target: T2, Aim4-Myc13 (S. cerevisiae) (UniProt P38305); test: as above
T2 sequence: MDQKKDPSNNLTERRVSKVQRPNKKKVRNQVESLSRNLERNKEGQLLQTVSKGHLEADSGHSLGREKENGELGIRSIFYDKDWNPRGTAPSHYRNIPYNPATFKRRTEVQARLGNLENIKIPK

His6-ScPrp19(144–503) = target: T3, His6-ScPrp19(144–503) (S. cerevisiae, UniProt P32523 144-503); test: pull-down; His6-Prp19(144–503) on Ni-NTA beads mixed 1 hr at 4°C with S. cerevisiae protein lysates expressing GFP-tagged proteins; washed with bead binding buffer with 5 mM imidazole; anti-GFP immunoblot; only the target purified
T3 construct: Prp19, S. cerevisiae, amino acids 144–503; also called His6-Prp19(144–503); ScPrp19 WD40 domain; source: E. coli BL21 (pET15b), purified (Ni-NTA agarose)
T3 sequence (looked up): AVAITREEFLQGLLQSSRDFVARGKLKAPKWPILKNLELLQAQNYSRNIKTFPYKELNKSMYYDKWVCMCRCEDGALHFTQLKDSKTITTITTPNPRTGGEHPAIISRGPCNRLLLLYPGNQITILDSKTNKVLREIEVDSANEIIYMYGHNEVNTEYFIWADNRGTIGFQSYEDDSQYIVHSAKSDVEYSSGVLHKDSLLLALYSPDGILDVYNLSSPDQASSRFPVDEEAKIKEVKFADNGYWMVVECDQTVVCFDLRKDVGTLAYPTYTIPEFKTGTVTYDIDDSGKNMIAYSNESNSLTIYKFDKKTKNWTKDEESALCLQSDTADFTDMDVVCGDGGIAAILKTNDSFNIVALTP

[4] = target: His6-ScUrn1 (S. cerevisiae) (UniProt Q06525); test: AUC; sedimentation velocity, 30,000 rpm, 22°C, 280 nm; Sedfit c(s) analysis; ScPrp19 constant with His6-ScUrn1 at 1∶1 or 1∶2.5 molar ratio; both purified

binding [1]: no binding
B1: MBP-ScPrp17 (protein, UniProt P40968 1-455)
chain: MGLVDGYDTSSDSDLNFDEGKSVHEKKNGNLHEDTSYEPSSNNIHKRKSHFTKSELKRRRKTRKGDGPWGSWSSSDDETSQASETQKEDQDIFVHALAEDNLDSEQIEVEEVSHFYGKSEKDYQGRGYLYPPNDVDVDLREERISFRCYLPKKVIRNYPGHPEGTTALKFLPKTGHLILSGGNDHTIKIWDFYHDYECLRDFQGHNKPIKALRFTEDCQSFLSSSFDRSVKIWDTETGKVKTRLHLNSTPADVESRPTNPHEFIVGLSNSKILHYDDRVSENQGLVQTYDHHLSSILALKYFPDGSKFISSSEDKTVRIWENQINVPIKQISDTAQHSMPFLNVHPSQNYFCAQSMDNRIYSFSLKPKYKRHPKKIFKGHSSAGYGISLAFSGDGRYICSGDSKSRLFTWDWNTSRLLNNIKIPGNKPITQVDWHPQETSKVICSGAAGKIYVCD

binding [2]: binds
B2: Aim4-Myc13 (protein, UniProt P38305 1-123)
chain: MDQKKDPSNNLTERRVSKVQRPNKKKVRNQVESLSRNLERNKEGQLLQTVSKGHLEADSGHSLGREKENGELGIRSIFYDKDWNPRGTAPSHYRNIPYNPATFKRRTEVQARLGNLENIKIPK

binding [3]: binds | binding (His6-ScPrp19(144–503)): binds
B3: Urn1-GFP (S. cerevisiae) (protein, UniProt Q06525 1-465)
chain: MRGEWQEFKTPAGKKYYYNKNTKQSRWEKPNLKKGSNLESNAKESQTERKPTFSLELVNGWHLIIYNDGTKLYFNDDSKEFKNDISQEDDSRCRSLIESLDKEKLVLLIGVARGYTMREEDIDKILESCNEEIHLFKRNQDEVERKDEISEEAGDVKSPLQESHTGLVSGYGSSSGEEDEEEDEEEDEENEEQIVNQDISIIDDLNRIDTDDIDERNIFFELFDRYKLDKFSTWSLQSKKIENDPDFYKIRDDTVRESLFEEWCGERSGNATAEESDSEDNSEDDSEVLEPTKYHYLAQIVANAGTIAPDTIPQDIRKQQKALYKAYKIKEYIPSKRDQDKFVSQLLFYYKTFDLEQRKEIFCDCLRDHERDFTGAVESLRQDKELIDRWQTLLKAPADSSSIEDILLSIEHRCCVSPIVVTEPRYYVVGILEKTVVWVRWLAAEVGPSSRFTPVGAGNEPINPE

binding [4]: no binding
B4: His6-ScUrn1 (natural protein, S. cerevisiae, UniProt Q06525 1-465, looked up)
chain: MRGEWQEFKTPAGKKYYYNKNTKQSRWEKPNLKKGSNLESNAKESQTERKPTFSLELVNGWHLIIYNDGTKLYFNDDSKEFKNDISQEDDSRCRSLIESLDKEKLVLLIGVARGYTMREEDIDKILESCNEEIHLFKRNQDEVERKDEISEEAGDVKSPLQESHTGLVSGYGSSSGEEDEEEDEEEDEENEEQIVNQDISIIDDLNRIDTDDIDERNIFFELFDRYKLDKFSTWSLQSKKIENDPDFYKIRDDTVRESLFEEWCGERSGNATAEESDSEDNSEDDSEVLEPTKYHYLAQIVANAGTIAPDTIPQDIRKQQKALYKAYKIKEYIPSKRDQDKFVSQLLFYYKTFDLEQRKEIFCDCLRDHERDFTGAVESLRQDKELIDRWQTLLKAPADSSSIEDILLSIEHRCCVSPIVVTEPRYYVVGILEKTVVWVRWLAAEVGPSSRFTPVGAGNEPINPE
notes: Urn1, S. cerevisiae (His6-ScUrn1 mass 55.1 kDa); the printed mass fits the whole protein; also called His6-Urn1; source: E. coli BL21 (pETDuet-1), co-expressed with ScPrp19, purified (Ni-NTA agarose, heparin agarose, gel filtration)
